Laboratory results as given in PubChem BioAssay AID248 (DTP/NCI, 2004).
The list does not hold the whole screen: it gathers tests that were run many times, whatever their T/C, doses with no T/C, and many T/C values between a quarter and a half above the control. Other doses and runs of a compound stand elsewhere. T/C is the treated group as % of the vehicle group. Some doses have a count of surviving animals in place of a T/C: the source holds a T/C of zero for them, seemingly a mark for toxic or unscored doses. Some doses without a T/C left all or most animals alive at the check, yet need not have been tolerated: the source hardly ever lists a survival T/C far under the control, and the zero likely stands for such cases as well. Counts of survivors are from the toxicity check (mostly the fifth day) where no day follows; animals may have died later. Schedules are NCI's codes, read here as Q, the interval in days (D) or hours (H), X, the number of doses. Some entries were tested several times; the values are given in rising order. Some schedule codes hold Z or #, which are not explained here. Where survival is the endpoint, this PubChem deposit counts one and a half times the control or more as active, and values a quarter to a half above the control carry no call in these data; other NCI protocols may use other cut-offs.

Tested on: L1210 leukemia ip in BDF1 mice, survival T/C
Test: NCI In Vivo Anticancer Drug Screen. Data for tumor model L1210 Leukemia (intraperitoneal) in B6D2F1 (BDF1) mice
Details: T/C endpoint: mean survival time, higher T/C = longer survival
[1] = dose: 400.0 mg/kg/injection, schedule: Q01DX001 (ip), vehicle: other
[2] = dose: 200.0 mg/kg/injection, schedule: Q01DX009 (ip), vehicle: Klucel (hydroxypropylcellulose) (HPC)
[3] = dose: 400.0 mg/kg/injection, schedule: Q01DX009 (ip), vehicle: Klucel (hydroxypropylcellulose) (HPC)
[4] = dose: 100.0 mg/kg/injection, schedule: Q04DX002 (ip), vehicle: saline
[5] = dose: 200.0 mg/kg/injection, schedule: Q04DX002 (ip), vehicle: saline
[6] = dose: 200.0 mg/kg/injection, schedule: Q01DX009 (ip), vehicle: carboxymethylcellulose (CMC)
[7] = dose: 400.0 mg/kg/injection, schedule: Q04DX002 (ip), vehicle: carboxymethylcellulose (CMC)
[8] = dose: 200.0 mg/kg/injection, schedule: Q01DX009 (ip), vehicle: saline
[9] = dose: 400.0 mg/kg/injection, schedule: Q01DX009 (ip), vehicle: saline
[10] = dose: 300.0 mg/kg/injection, schedule: Q01DX001 (ip), vehicle: other
[11] = dose: 400.0 mg/kg/injection, schedule: Q01DX001 (ip), vehicle: carboxymethylcellulose (CMC)
[12] = dose: 400.0 mg/kg/injection, schedule: Q04DX003 (ip), vehicle: saline with Tween-80
[13] = dose: 200.0 mg/kg/injection, schedule: Q04DX003 (ip), vehicle: saline with Tween-80

Oc1[nH]c2ccccc2c1N=NC(=S)Nc1ccccc1
survivor count (dose: 300.0 mg/kg/injection, schedule: Q01DX001 (ip), vehicle: saline): 6 of 6

C/C(=N\NC(N)=S)C(O)c1ccccc1 (centres undefined)
survivor count (dose: 100.0 mg/kg/injection, schedule: Q01DX001 (ip), vehicle: other): 0 of 4
survivor count (dose: 200.0 mg/kg/injection, schedule: Q01DX001 (ip), vehicle: other): 0 of 4
survivor count [1]: 0 of 4

O=c1oc2c3ccccc3c3ccccc3c2o1
survivor count [2]: 4 of 6
survivor count [3]: 2 of 6

CC(C)c1nccn1Cc1ccccc1
T/C (dose: 50.0 mg/kg/injection, schedule: Q04DX002 (ip), vehicle: saline): 97, 100, 104, 109 % of control
survivor count (dose: 100.0 mg/kg/injection, schedule: Q01DX001 (ip), vehicle: saline): 3 of 6
T/C [4]: 95, 97, 109, 145 % of control
survivor count [4]: 1 of 3 and 3 of 6
survivor count (dose: 100.0 mg/kg/injection, schedule: Q04DX003 (ip), vehicle: saline): 0 of 6 and 2 of 6
survivor count (dose: 125.0 mg/kg/injection, schedule: Q04DX002 (ip), vehicle: saline): 1 of 6
survivor count (dose: 200.0 mg/kg/injection, schedule: Q01DX001 (ip), vehicle: saline): 0 of 6
T/C [5]: 97 and 101 % of control
survivor count [5]: 0 of 3
survivor count (dose: 200.0 mg/kg/injection, schedule: Q04DX003 (ip), vehicle: saline): 0 of 6
survivor count (dose: 400.0 mg/kg/injection, schedule: Q01DX001 (ip), vehicle: saline): 0 of 6
survivor count (dose: 400.0 mg/kg/injection, schedule: Q04DX002 (ip), vehicle: saline): 0 of 3 and 1 of 6
survivor count (dose: 400.0 mg/kg/injection, schedule: Q04DX003 (ip), vehicle: saline): 0 of 6

O=c1[nH]nc(CF)c(=O)[nH]1
T/C (dose: 25.0 mg/kg/injection, schedule: Q01DX Z (ip), vehicle: saline): 127 % of control
survivor count (dose: 40.0 mg/kg/injection, schedule: Q01DX Z (ip), vehicle: saline): 3 of 6
survivor count (dose: 48.0 mg/kg/injection, schedule: Q01DX009 (ip), vehicle: saline): 4 of 6

CC(CNC(=O)CCOS(C)(=O)=O)NC(=O)CCOS(C)(=O)=O (centres undefined)
T/C (dose: 50.0 mg/kg/injection, schedule: Q01DX Z (ip), vehicle: carboxymethylcellulose (CMC)): 127 % of control
T/C (dose: 76.0 mg/kg/injection, schedule: Q01DX Z (ip), vehicle: carboxymethylcellulose (CMC)): 139 % of control
T/C (dose: 113.0 mg/kg/injection, schedule: Q01DX Z (ip), vehicle: carboxymethylcellulose (CMC)): 130 % of control
T/C (dose: 170.0 mg/kg/injection, schedule: Q01DX Z (ip), vehicle: carboxymethylcellulose (CMC)): 148 % of control

COC(=O)C(CSCSC)NC(=O)/C=C/c1ccccc1Cl (centres undefined)
survivor count (dose: 100.0 mg/kg/injection, schedule: Q01DX009 (ip), vehicle: saline with Tween-80): 6 of 6

CCCCCCCCCC(=O)N1CCCC(C)C1 (centres undefined)
survivor count [6]: 3 of 3
survivor count [7]: 3 of 3

S=c1nc[nH]c2nc[nH]c12.[Ag]
survivor count (dose: 6.0 mg/kg/injection, schedule: Q01DX009 (ip), vehicle: carboxymethylcellulose (CMC)): 3 of 6
survivor count (dose: 12.0 mg/kg/injection, schedule: Q01DX009 (ip), vehicle: carboxymethylcellulose (CMC)): 3 of 6
survivor count (dose: 25.0 mg/kg/injection, schedule: Q01DX009 (ip), vehicle: carboxymethylcellulose (CMC)): 3 of 6
T/C (dose: 100.0 mg/kg/injection, schedule: Q01DX009 (ip), vehicle: carboxymethylcellulose (CMC)): 139 % of control
T/C [6]: 128 and 137 % of control
survivor count [6]: 3 of 6
T/C [8]: 143 % of control
T/C (dose: 400.0 mg/kg/injection, schedule: Q01DX009 (ip), vehicle: carboxymethylcellulose (CMC)): 140 % of control
T/C [9]: 141 % of control
T/C (dose: 600.0 mg/kg/injection, schedule: Q01DX009 (ip), vehicle: saline): 143 % of control

CSc1ccccc1N=Cc1cc(Cl)ccc1O
survivor count (dose: 200.0 mg/kg/injection, schedule: Q01DX001 (ip), vehicle: saline with Tween-80): 6 of 6
survivor count (dose: 400.0 mg/kg/injection, schedule: Q01DX001 (ip), vehicle: saline with Tween-80): 6 of 6

CCOc1ccccc1/C=C1\C=Nc2ccccc21
survivor count [7]: 3 of 3

COc1ccc2nonc2c1
survivor count [1]: 0 of 3

COc1ccc(C2=CC(=O)C(c3ccc(OC)cc3)=CC2=O)cc1
survivor count (dose: 40.0 mg/kg/injection, schedule: Q01DX009 (ip), vehicle: gum acacia): 6 of 6

CC(=O)OC1=C(Cl)C(=O)c2ccccc2C1=O
survivor count [10]: 0 of 6

C[N+](C)(C)c1ccc(F)c([N+](=O)[O-])c1
survivor count (dose: 400.0 mg/kg/injection, schedule: Q04DX002 (ip), vehicle: Klucel (hydroxypropylcellulose) (HPC)): 2 of 3

CCN(CCCl)CC1C(c2ccccc2)C1c1ccccc1 (centres undefined)
survivor count (dose: 100.0 mg/kg/injection, schedule: Q04DX002 (ip), vehicle: Klucel (hydroxypropylcellulose) (HPC)): 0 of 3

OC(c1cc(-c2cccc(Cl)c2)nc2ccccc12)C1CCCCN1 (centres undefined)
survivor count [11]: 0 of 4

N=C(N)SCc1c2ccccc2cc2ccccc12
T/C [8]: 125 % of control
survivor count (dose: 300.0 mg/kg/injection, schedule: Q01DX009 (ip), vehicle: saline sonified): 5 of 6
survivor count [9]: 0 of 6

CNC(=O)Oc1c([N+](=O)[O-])c([N+](=O)[O-])cc2ccccc12
survivor count (dose: 150.0 mg/kg/injection, schedule: Q01DX001 (ip), vehicle: other): 3 of 6
survivor count [10]: 0 of 6

CCC/C=[CH]/[Hg][Cl]
survivor count (dose: 100.0 mg/kg/injection, schedule: Q04DX003 (ip), vehicle: other): 0 of 6
survivor count (dose: 200.0 mg/kg/injection, schedule: Q04DX003 (ip), vehicle: other): 0 of 6
survivor count (dose: 400.0 mg/kg/injection, schedule: Q04DX003 (ip), vehicle: other): 0 of 6

Cc1cc2[nH]c(=O)[nH]c2cc1C
survivor count [12]: 2 of 6

O=C(NNC(=O)c1ccc(Br)cc1)c1ccc(Cl)cc1
survivor count [3]: 6 of 6

CC1CC(C)(C)N=C(C2(c3ccccc3)CC2)O1 (centres undefined)
survivor count [13]: 5 of 6
survivor count [12]: 1 of 6

O=[N+]([O-])Nc1cc(Cl)nc(Cl)c1
survivor count (dose: 300.0 mg/kg/injection, schedule: Q01DX001 (ip), vehicle: carboxymethylcellulose (CMC)): 1 of 6

CCCCCCCCCCCC[N+](C)(C)CCn1cnc2c(N)ncnc21
survivor count (dose: 100.0 mg/kg/injection, schedule: Q04DX003 (ip), vehicle: saline with Tween-80): 0 of 4
survivor count [13]: 0 of 4
survivor count [12]: 0 of 4

CNc1ncnc(Cl)c1N
survivor count (dose: 400.0 mg/kg/injection, schedule: Q01DX001 (ip), vehicle: Klucel (hydroxypropylcellulose) (HPC)): 0 of 6

Nc1cc[n+](-c2ccc([N+](=O)[O-])cc2[N+](=O)[O-])cc1
survivor count (dose: 50.0 mg/kg/injection, schedule: Q01DX009 (ip), vehicle: Klucel (hydroxypropylcellulose) (HPC)): 0 of 6
survivor count (dose: 100.0 mg/kg/injection, schedule: Q01DX009 (ip), vehicle: Klucel (hydroxypropylcellulose) (HPC)): 0 of 6
survivor count [2]: 0 of 6
survivor count [3]: 0 of 6

Nc1nc(Cl)nc2c1ncn2C1CC(O)C(CO)O1 (centres undefined)
T/C (dose: 100.0 mg/kg/injection, schedule: Q01DX001 (ip), vehicle: carboxymethylcellulose (CMC)): 129 % of control
T/C (dose: 150.0 mg/kg/injection, schedule: Q01DX001 (ip), vehicle: carboxymethylcellulose (CMC)): 126 % of control
survivor count [11]: 0 of 4

NC1=NCCCN1
survivor count [13]: 2 of 6
survivor count [12]: 0 of 6
